The test concerns the target [35S]pro-caspase-9 (mammalian) (UniProt P55211). Description: GST pull-down of in vitro-translated [35S]pro-caspase-9 on glutathione-Sepharose, SDS-PAGE and autoradiography.

The chains behind the UniProt entries cited, without tags or fusion partners.
UniProt P55211: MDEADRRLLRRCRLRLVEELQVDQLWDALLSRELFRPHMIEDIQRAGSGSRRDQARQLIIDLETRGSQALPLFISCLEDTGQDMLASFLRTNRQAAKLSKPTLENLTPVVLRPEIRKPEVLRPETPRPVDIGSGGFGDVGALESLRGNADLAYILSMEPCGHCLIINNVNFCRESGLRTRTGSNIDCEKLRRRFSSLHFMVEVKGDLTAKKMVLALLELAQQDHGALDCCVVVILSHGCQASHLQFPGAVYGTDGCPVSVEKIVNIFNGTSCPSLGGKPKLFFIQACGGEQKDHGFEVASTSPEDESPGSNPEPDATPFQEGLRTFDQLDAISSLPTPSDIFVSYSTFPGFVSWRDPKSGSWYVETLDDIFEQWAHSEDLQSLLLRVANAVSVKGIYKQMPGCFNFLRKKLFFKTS

The source of these data is patent publication US6570069B1, “Nucleic acids encoding plant inhibitors of apoptosis and transgenic cells and plants expressing them” (priority 2000, dated 2003).

Results are given in words; binding and its absence hold for the method and conditions named. Some binding calls cover weakened binding; strength is not graded here. Sequences can lack the tags named with a protein.

B1: GST-CpIAP (other)
chain: MSDLRLEEVRLNTFEKWPVSFLSPETMAKNGFYYLGRSDEVRCAFCKVEIMRWKEGEDPAADHKKWAPQCPFVKGIDVCGSIVTTNNIQNTTTHDTIIGPAHPKYAHEAARVKSFHNWPRCMKQRPEQMADAGFFYTGYGDNTKCFYCDGGLKDWEPEDVPWEQHVRWFDRCAYVQLVKGRDYVQKVITEACVLPGENTTVSTAAPVSEPIPETKIEKEPQVEDSKLCKICYVEECIVCFVPCGHVVACAKCALSVDKCPMCRKIVTSVLKVYFS
notes: range 1-275
As for B1, the binding result is recorded as “binds”.
